From the supplement of paper PMC10849652
Some of the results follow.

The chains behind the UniProt entries cited, without tags or fusion partners. Where a name states a change or a piece, a line headed by the entry shows the natural chain unless it says otherwise.
UniProt Q96DU7: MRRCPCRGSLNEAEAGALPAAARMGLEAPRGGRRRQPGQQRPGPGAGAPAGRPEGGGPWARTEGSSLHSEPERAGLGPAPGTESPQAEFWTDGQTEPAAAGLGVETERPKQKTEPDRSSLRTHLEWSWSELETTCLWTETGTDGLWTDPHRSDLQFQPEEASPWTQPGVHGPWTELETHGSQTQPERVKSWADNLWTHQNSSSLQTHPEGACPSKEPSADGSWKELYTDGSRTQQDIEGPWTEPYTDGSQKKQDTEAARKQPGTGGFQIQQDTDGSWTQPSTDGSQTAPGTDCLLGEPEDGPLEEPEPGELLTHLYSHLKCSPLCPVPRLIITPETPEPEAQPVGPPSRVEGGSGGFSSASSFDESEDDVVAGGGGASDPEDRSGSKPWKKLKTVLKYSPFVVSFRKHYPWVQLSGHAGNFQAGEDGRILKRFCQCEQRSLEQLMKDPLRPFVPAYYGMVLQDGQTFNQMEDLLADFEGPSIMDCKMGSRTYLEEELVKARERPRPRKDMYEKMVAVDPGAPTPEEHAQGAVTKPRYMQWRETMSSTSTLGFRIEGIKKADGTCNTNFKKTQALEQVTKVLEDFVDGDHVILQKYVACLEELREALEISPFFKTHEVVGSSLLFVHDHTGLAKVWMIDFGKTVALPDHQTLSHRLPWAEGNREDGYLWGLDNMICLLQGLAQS
UniProt Q9H1K1: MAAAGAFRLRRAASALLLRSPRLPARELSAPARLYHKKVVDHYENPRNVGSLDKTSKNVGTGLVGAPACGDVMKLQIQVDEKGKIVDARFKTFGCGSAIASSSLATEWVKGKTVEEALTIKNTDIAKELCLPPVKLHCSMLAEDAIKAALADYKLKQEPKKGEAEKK
UniProt O43736: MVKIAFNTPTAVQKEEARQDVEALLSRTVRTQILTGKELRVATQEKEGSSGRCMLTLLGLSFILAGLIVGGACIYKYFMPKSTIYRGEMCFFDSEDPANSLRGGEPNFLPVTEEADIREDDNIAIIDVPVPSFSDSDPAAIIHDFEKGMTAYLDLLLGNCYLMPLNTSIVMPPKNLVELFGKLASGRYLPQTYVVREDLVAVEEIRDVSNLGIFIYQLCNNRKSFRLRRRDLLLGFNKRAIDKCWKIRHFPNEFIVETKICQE
UniProt O75449: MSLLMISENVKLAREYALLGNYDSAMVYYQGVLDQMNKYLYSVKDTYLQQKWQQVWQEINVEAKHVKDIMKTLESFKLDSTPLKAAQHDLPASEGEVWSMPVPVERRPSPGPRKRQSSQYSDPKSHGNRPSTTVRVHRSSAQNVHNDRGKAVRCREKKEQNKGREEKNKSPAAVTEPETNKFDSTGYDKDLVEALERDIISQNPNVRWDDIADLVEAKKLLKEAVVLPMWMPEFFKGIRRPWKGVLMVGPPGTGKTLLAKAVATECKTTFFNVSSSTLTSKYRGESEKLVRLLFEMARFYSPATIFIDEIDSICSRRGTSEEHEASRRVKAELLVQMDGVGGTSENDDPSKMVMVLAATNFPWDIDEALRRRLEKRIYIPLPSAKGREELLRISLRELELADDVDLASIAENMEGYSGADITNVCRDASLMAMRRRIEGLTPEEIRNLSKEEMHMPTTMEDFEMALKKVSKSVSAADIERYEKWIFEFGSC
UniProt Q7Z5Y7: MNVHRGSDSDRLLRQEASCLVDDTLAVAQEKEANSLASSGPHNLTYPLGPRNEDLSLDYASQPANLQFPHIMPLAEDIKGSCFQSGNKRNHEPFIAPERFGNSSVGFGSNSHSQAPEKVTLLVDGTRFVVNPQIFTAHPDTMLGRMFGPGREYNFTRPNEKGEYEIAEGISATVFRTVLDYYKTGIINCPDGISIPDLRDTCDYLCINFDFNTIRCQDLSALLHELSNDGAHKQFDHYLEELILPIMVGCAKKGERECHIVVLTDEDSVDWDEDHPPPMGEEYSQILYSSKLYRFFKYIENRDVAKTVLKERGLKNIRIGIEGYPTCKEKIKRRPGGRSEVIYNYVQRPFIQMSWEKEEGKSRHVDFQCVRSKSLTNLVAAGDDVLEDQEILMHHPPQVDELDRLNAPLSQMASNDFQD
UniProt Q6P9B9, whole entry, looked up: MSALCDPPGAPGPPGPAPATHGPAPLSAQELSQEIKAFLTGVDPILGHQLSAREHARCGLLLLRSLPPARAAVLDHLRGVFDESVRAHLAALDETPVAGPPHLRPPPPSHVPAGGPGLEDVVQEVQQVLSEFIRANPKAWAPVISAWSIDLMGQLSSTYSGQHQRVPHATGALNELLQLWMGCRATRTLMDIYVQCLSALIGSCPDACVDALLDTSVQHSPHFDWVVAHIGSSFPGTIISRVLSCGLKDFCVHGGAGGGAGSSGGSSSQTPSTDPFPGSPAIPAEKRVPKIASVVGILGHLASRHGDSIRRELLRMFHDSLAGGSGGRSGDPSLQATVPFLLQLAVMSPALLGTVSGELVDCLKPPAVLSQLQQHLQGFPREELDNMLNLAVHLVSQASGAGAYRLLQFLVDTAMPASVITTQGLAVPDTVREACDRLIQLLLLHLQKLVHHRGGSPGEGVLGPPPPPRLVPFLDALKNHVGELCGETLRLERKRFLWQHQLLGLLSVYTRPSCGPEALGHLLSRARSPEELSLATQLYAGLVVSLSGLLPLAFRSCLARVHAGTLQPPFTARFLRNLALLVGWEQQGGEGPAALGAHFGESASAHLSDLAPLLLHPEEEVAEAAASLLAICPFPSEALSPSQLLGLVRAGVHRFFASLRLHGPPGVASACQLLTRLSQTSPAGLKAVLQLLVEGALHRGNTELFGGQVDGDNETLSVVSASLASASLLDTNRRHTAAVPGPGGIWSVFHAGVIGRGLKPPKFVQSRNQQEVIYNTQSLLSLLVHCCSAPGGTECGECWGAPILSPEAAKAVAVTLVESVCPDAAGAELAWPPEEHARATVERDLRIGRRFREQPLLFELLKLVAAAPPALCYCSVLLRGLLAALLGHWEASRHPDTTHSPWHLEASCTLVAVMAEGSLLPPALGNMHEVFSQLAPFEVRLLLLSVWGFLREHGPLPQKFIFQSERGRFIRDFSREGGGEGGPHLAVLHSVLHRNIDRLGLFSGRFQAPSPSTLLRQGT
UniProt P05556, whole entry, looked up: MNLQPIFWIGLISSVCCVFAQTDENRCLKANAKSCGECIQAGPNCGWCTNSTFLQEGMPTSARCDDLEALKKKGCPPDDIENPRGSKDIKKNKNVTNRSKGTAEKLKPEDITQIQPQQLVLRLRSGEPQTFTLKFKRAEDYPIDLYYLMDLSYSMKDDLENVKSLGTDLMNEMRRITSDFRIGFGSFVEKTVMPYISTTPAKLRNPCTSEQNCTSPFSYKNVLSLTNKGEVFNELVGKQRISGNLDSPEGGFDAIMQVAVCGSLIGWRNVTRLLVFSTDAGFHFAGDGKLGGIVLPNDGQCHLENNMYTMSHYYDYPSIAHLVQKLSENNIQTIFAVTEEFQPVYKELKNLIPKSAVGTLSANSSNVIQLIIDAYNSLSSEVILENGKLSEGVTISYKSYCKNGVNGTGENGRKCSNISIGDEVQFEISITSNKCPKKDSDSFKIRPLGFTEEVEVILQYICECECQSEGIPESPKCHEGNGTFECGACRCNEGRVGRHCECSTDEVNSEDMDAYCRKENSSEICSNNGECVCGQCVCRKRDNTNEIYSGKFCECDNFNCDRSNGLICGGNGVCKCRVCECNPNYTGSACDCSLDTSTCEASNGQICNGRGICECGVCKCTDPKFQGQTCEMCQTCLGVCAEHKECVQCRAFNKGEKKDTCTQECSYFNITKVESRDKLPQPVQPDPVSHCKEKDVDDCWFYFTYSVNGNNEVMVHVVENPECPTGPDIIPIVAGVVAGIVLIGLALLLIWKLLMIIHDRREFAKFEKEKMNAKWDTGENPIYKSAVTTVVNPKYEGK
UniProt Q9NPH2: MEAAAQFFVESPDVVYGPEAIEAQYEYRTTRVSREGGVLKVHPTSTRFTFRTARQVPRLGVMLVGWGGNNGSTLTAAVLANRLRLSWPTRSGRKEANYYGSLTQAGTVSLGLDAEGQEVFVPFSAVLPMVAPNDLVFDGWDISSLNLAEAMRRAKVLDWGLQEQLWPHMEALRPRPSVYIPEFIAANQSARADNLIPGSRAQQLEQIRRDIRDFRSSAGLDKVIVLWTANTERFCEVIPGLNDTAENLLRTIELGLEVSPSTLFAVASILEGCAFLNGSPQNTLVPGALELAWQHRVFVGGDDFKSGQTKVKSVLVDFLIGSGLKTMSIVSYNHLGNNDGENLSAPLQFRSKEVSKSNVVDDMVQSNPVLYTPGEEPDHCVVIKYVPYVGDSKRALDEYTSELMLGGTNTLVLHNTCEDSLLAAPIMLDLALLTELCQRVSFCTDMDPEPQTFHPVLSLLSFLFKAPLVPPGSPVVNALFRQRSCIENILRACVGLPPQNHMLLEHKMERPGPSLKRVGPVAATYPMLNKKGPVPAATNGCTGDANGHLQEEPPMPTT
UniProt Q9NV88, whole entry, looked up: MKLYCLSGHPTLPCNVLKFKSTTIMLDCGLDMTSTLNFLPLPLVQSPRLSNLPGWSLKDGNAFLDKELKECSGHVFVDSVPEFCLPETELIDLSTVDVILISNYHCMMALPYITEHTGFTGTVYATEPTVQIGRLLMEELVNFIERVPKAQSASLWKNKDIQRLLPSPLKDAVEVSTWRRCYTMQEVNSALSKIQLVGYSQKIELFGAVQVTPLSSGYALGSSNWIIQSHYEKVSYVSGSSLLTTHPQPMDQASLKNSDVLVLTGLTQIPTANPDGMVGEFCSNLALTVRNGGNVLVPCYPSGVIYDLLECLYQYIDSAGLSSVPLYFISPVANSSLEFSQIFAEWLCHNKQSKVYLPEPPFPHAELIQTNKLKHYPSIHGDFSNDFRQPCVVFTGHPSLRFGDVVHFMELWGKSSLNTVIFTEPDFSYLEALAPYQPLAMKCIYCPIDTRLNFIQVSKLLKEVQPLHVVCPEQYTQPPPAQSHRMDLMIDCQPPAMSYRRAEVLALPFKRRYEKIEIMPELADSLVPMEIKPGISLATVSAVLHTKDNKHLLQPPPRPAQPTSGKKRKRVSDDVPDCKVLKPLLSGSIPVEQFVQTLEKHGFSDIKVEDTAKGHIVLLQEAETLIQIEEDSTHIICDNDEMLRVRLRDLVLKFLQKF
UniProt Q8NC54: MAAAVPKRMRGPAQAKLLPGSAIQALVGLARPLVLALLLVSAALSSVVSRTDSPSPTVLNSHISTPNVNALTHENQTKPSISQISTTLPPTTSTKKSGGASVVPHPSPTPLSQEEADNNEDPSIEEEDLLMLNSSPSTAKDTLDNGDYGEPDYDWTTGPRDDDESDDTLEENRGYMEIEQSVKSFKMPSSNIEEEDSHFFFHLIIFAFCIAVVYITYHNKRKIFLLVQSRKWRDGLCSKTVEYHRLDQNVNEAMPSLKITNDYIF
UniProt P14316: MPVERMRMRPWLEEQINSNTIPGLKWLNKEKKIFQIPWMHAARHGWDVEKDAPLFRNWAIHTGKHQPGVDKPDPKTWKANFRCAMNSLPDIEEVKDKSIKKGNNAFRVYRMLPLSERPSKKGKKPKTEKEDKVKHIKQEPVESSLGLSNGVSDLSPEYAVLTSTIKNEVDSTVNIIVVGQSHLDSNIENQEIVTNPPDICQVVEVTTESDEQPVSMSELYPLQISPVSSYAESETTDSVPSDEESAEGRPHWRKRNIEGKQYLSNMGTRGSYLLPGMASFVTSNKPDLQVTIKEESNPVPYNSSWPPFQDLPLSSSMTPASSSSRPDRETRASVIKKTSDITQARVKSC
UniProt Q96J02: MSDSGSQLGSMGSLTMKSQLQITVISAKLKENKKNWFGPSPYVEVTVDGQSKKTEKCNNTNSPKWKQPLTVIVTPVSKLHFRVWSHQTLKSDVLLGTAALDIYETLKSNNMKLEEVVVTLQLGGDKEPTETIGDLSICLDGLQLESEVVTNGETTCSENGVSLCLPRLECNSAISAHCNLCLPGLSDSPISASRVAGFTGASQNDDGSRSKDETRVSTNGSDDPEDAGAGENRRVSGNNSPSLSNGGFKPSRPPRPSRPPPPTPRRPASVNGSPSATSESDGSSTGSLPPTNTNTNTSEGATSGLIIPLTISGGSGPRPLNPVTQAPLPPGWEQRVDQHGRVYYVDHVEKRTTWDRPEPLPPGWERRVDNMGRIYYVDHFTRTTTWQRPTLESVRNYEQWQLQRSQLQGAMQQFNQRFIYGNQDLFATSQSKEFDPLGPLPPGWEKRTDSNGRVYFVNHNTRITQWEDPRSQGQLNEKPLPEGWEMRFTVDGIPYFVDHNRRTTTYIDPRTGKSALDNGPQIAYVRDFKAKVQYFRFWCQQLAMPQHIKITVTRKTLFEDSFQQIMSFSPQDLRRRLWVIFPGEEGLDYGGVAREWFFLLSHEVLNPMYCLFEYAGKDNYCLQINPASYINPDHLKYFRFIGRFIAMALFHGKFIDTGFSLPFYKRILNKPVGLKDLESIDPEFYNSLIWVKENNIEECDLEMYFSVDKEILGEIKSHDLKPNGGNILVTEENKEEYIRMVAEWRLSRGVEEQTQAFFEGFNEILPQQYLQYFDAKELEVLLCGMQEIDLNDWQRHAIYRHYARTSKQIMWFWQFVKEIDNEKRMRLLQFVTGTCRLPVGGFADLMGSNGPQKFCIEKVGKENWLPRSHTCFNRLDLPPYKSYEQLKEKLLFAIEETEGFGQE

Columns and labels:
Experiment in all cases: log2 fold change, soluble protein after heating vs DMSO (PISA); higher = thermal stabilisation; K562 lysate, 10 uM; active = over 0.2 and 3.5 SD of the protein, either way, in both replicates (recomputed)
erlotinib = compound: C#Cc1cccc(Nc2ncnc3cc(OCCOC)c(OCCOC)cc23)c1 [erlotinib]
Method in brief: (§1)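 A 30 min treatment with 10 μM compound was applied to crude K562 extract at 1 mg/mL protein in PBS pH 7.4 with 1 mM MgCl2. Heating for 3 min spanned 48°C-58°C, after which aliquots were pooled, adjusted to 0.5% NP-40 at 4°C and spun at 21,000xg for 90 min. TMTpro 16plex LC-MS/MS of the supernatant, with channel sums equalised, gave values recorded as log-two fold change in thermal stability against solvent controls, from duplicates.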

[1] = compound: C/C(=N\NC(=O)C1=CC(=CC=C1)S(=O)(=O)N2CCOCC2)/C3=C(C=CC(=C3)Cl)O
Method in brief: as §1

[2] = compound: C1=CC(=CC=C1C2=NC3=C(N2)C=C(C=C3)C(=O)N)OC4=CC=C(C=C4)Cl
Method in brief: as §1

[3] = compound: C1=CC2=C(C=CC(=C2)/C=C\3/C(=O)NC(=NCC4=CC=CS4)S3)N=C1
Method in brief: as §1

[4] = compound: C1=CC2=NC=CN=C2C=C1/C=C/3\C(=O)NC(=O)S3
Method in brief: as §1

[5] = compound: C1=CC=C(C=C1)C2=NC(=C(N2)C3=CC=NC=C3)C4=CC(=C(C=C4)Cl)O
Method in brief: as §1

[6] = compound: C1=CC=C2C(=C1)C3=NNC4=CC=CC(=C43)C2=O
Method in brief: as §1

[7] = compound: C1CCN(C1)C(=O)NC2=CC=CC(=C2)NC3=NC=C(C(=N3)NCCC4=CN=CN4)Br
Method in brief: as §1

[8] = compound: C1CN(CCC1(CC2=CC=C(C=C2)Cl)N)C3=NC=NC4=C3C=CN4
Method in brief: as §1

IRAK-1-4 Inhibitor I = compound: C1COCCN1CCN2C3=CC=CC=C3N=C2NC(=O)C4=CC(=CC=C4)[N+](=O)[O-] [IRAK-1-4 Inhibitor I]
Method in brief: as §1

Measured: log2 fold change

ITPKC (UniProt Q96DU7)
inactive: erlotinib 0.074 | [1] 0.081 | [2] -0.052 | [3] 0.053 | [4] 0.024 | [5] 0.073 | [6] -0.004 | [7] 0.014 | [8] 0.024 | IRAK-1-4 Inhibitor I -0.013

IPO13 (UniProt O94829)
inactive: erlotinib 0.016 | [1] 0.117 | [2] -0.023 | [3] -0.011 | [4] 0.034 | [5] -0.014 | [6] -0.005 | [7] -0.02 | [8] 0.034 | IRAK-1-4 Inhibitor I 0.056

IPO11 isoform 2 (UniProt Q9UI26)
inactive: erlotinib 0.021 | [1] -0.01 | [2] 0.035 | [3] 0.025 | [4] 0 | [5] -0.029 | [6] -0.041 | [7] -0.007 | [8] 0.02 | IRAK-1-4 Inhibitor I 0.008

IRAK1 (UniProt P51617)
inactive: erlotinib 0.038 | [1] -0.054 | [2] -0.108 | [3] -0.015 | [4] 0.028 | [5] 0.039 | [6] 0.117 | [7] 0.023 | [8] -0.096 | IRAK-1-4 Inhibitor I 0.023

ISCU (UniProt Q9H1K1)
inactive: erlotinib -0.043 | [1] 0.021 | [2] 0.014 | [3] -0.023 | [4] -0.009 | [5] -0.013 | [6] 0.023 | [7] 0.047 | [8] -0.023 | IRAK-1-4 Inhibitor I 0.002

ITM2A (UniProt O43736)
inactive: erlotinib -0.017 | [1] -0.002 | [2] -0.022 | [3] 0.078 | [4] 0.058 | [5] -0.013 | [6] 0.001 | [7] -0.036 | [8] 0.031 | IRAK-1-4 Inhibitor I -0.001

KATNA1 (UniProt O75449)
inactive: erlotinib 0.011 | [1] 0.033 | [2] -0.021 | [3] -0.06 | [4] -0.044 | [5] 0.034 | [6] -0.045 | [7] 0.004 | [8] 0.01 | IRAK-1-4 Inhibitor I 0.023

JMJD6 isoform 3 (UniProt Q6NYC1)
inactive: erlotinib -0.052 | [1] -0.239 | [2] 0.062 | [3] 0.001 | [4] -0.018 | [5] -0.007 | [6] 0.083 | [7] 0.017 | [8] 0.036 | IRAK-1-4 Inhibitor I 0.009

ITGAE (UniProt P38570)
inactive: erlotinib 0.079 | [1] -0.165 | [2] 0.146 | [3] -0.06 | [4] -0.073 | [5] 0.133 | [6] -0.09 | [7] -0.082 | [8] 0.016 | IRAK-1-4 Inhibitor I -0.086

ITFG2 (UniProt Q969R8)
inactive: erlotinib 0.002 | [1] -0.071 | [2] 0.002 | [3] 0.1 | [4] 0.039 | [5] -0.03 | [6] -0.035 | [7] 0.009 | [8] -0.013 | IRAK-1-4 Inhibitor I 0.017

KDM1A (UniProt O60341)
inactive: erlotinib -0.005 | [1] 0.106 | [2] 0.021 | [3] 0 | [4] -0.006 | [5] -0.019 | [6] -0.071 | [7] -0.019 | [8] -0.009 | IRAK-1-4 Inhibitor I -0.003

KCTD20 (UniProt Q7Z5Y7)
inactive: erlotinib 0.072 | [1] -0.145 | [2] -0.006 | [3] 0 | [4] 0.001 | [5] 0.063 | [6] 0.038 | [7] 0.081 | [8] 0.083 | IRAK-1-4 Inhibitor I 0.048

IQGAP1 (UniProt P46940)
inactive: erlotinib -0.029 | [1] 0.092 | [2] 0.024 | [3] -0.021 | [4] -0.012 | [5] 0 | [6] -0.024 | [7] -0.01 | [8] 0.033 | IRAK-1-4 Inhibitor I -0.02

INTS5 (UniProt Q6P9B9)
inactive: erlotinib 0.002 | [1] -0.061 | [2] -0.082 | [3] -0.04 | [4] 0.068 | [5] -0.072 | [6] -0.098 | [7] -0.001 | [8] 0.247 | IRAK-1-4 Inhibitor I -0.015

ITGB1 (UniProt P05556)
inactive: erlotinib 0.006 | [1] -0.038 | [2] 0.008 | [3] -0.001 | [4] -0.011 | [5] -0.014 | [6] 0.004 | [7] 0.008 | [8] 0.009 | IRAK-1-4 Inhibitor I 0.018

KCNAB2 (UniProt Q13303)
inactive: erlotinib -0.064 | [1] -0.062 | [2] -0.007 | [3] 0.084 | [4] 0.003 | [5] -0.023 | [6] -0.011 | [7] -0.021 | [8] -0.012 | IRAK-1-4 Inhibitor I 0.003

KBTBD4 isoform 2 (UniProt Q9NVX7)
inactive: erlotinib 0.09 | [1] 0.013 | [2] 0.036 | [3] 0.013 | [4] -0.096 | [5] 0.016 | [6] -0.073 | [7] -0.028 | [8] 0.013 | IRAK-1-4 Inhibitor I -0.017

ITIH4 (UniProt Q14624)
inactive: erlotinib 0.048 | [1] 0.099 | [2] 0.036 | [3] 0.028 | [4] -0.041 | [5] 0.053 | [6] 0.035 | [7] -0.02 | [8] 0.034 | IRAK-1-4 Inhibitor I 0.036

ISYNA1 (UniProt Q9NPH2)
inactive: erlotinib -0.034 | [1] 0.014 | [2] -0.018 | [3] 0.01 | [4] 0.029 | [5] -0.037 | [6] 0.025 | [7] 0.042 | [8] 0.011 | IRAK-1-4 Inhibitor I 0.013

IREB2 (UniProt P48200)
inactive: erlotinib -0.006 | [1] -0.003 | [2] -0.001 | [3] 0.012 | [4] -0.02 | [5] -0.02 | [6] 0.021 | [7] -0.003 | [8] 0.005 | IRAK-1-4 Inhibitor I 0.013

INTS9 (UniProt Q9NV88)
inactive: erlotinib 0.012 | [1] -0.1 | [2] 0.002 | [3] -0.041 | [4] -0.02 | [5] -0.016 | [6] 0.001 | [7] -0.066 | [8] 0.007 | IRAK-1-4 Inhibitor I 0.016

KCT2 (UniProt Q8NC54)
inactive: erlotinib -0.05 | [1] 0.098 | [2] 0.041 | [3] 0.017 | [4] 0.055 | [5] 0 | [6] -0.026 | [7] 0.021 | [8] 0.01 | IRAK-1-4 Inhibitor I 0.031

IRF2BPL (UniProt Q9H1B7)
inactive: erlotinib 0.024 | [1] 0.102 | [2] 0.037 | [3] 0.022 | [4] -0.034 | [5] 0.002 | [6] -0.008 | [7] -0.002 | [8] 0.027 | IRAK-1-4 Inhibitor I -0.027

Taken from above (two entries):
KBTBD4 isoform 2 (UniProt Q9NVX7)
inactive: erlotinib 0.09 | [1] 0.013 | [2] 0.036 | [3] 0.013 | [4] -0.096 | [5] 0.016 | [6] -0.073 | [7] -0.028 | [8] 0.013 | IRAK-1-4 Inhibitor I -0.017

ITIH4 (UniProt Q14624)
inactive: erlotinib 0.048 | [1] 0.099 | [2] 0.036 | [3] 0.028 | [4] -0.041 | [5] 0.053 | [6] 0.035 | [7] -0.02 | [8] 0.034 | IRAK-1-4 Inhibitor I 0.036

(cont.)

KBTBD2 (UniProt Q8IY47)
inactive: erlotinib -0.002 | [1] 0.019 | [2] 0.056 | [3] 0 | [4] 0.011 | [5] 0.016 | [6] -0.079 | [7] -0.023 | [8] 0.052 | IRAK-1-4 Inhibitor I 0.097

IRF2 (UniProt P14316)
inactive: erlotinib -0.06 | [1] -0.218 | [2] 0.048 | [3] -0.035 | [4] -0.047 | [5] 0.017 | [6] 0.046 | [7] -0.002 | [8] 0.012 | IRAK-1-4 Inhibitor I -0.021

IQGAP2 (UniProt Q13576)
inactive: erlotinib -0.004 | [1] 0.009 | [2] -0.036 | [3] 0.028 | [4] 0.012 | [5] 0.015 | [6] -0.056 | [7] -0.008 | [8] 0.005 | IRAK-1-4 Inhibitor I 0.01

ITCH (UniProt Q96J02)
inactive: erlotinib -0.037 | [1] -0.001 | [2] 0.014 | [3] 0.077 | [4] -0.031 | [5] -0.032 | [6] -0.038 | [7] 0.005 | [8] -0.039 | IRAK-1-4 Inhibitor I 0.018

KDM1B (UniProt Q8NB78)
inactive: erlotinib 0.066 | [1] 0.086 | [2] 0.073 | [3] -0.033 | [4] -0.064 | [5] -0.01 | [6] -0.125 | [7] -0.03 | [8] 0.113 | IRAK-1-4 Inhibitor I 0.005

JMJD4 (UniProt Q9H9V9)
inactive: erlotinib 0.089 | [1] -0.023 | [2] -0.12 | [3] -0.072 | [4] -0.101 | [5] 0.007 | [6] -0.077 | [7] 0.044 | [8] 0.031 | IRAK-1-4 Inhibitor I 0.076

IQSEC2 (UniProt Q5JU85)
inactive: erlotinib 0.065 | [1] -0.049 | [2] -0.015 | [3] 0.006 | [4] 0 | [5] 0.001 | [6] -0.027 | [7] -0.127 | [8] 0.081 | IRAK-1-4 Inhibitor I -0.031
